Data taken from paper PMC5908787.
Results are given in words; binding and its absence hold for the method and conditions named. Binding seen in cells or lysates may run through a third protein. Some binding calls cover weakened binding; strength is not graded here. For part of these data: Where a sequence is shown, tags or fusion partners need not be part of it.

By UniProt entry, the sequences of proteins in these tests, tags left out.
UniProt Q62406: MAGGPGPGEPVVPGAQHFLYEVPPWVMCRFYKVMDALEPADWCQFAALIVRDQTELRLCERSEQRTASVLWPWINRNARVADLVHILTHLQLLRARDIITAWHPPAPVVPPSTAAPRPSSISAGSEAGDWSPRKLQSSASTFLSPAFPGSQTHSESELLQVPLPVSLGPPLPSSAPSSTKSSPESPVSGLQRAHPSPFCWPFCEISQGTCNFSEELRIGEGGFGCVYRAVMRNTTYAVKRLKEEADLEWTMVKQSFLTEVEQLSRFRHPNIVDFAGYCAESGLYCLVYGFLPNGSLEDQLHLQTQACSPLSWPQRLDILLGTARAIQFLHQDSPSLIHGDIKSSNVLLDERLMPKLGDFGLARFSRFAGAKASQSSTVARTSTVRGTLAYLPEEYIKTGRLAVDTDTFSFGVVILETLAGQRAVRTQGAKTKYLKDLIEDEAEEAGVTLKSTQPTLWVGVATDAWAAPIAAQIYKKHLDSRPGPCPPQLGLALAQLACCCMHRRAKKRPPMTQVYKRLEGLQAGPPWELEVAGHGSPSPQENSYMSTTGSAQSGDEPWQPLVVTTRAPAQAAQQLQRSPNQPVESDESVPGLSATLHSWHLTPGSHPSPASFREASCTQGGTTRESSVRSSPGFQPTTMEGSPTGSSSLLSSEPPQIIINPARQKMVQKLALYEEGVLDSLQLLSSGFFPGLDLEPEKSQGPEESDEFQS
UniProt Q8R4B8: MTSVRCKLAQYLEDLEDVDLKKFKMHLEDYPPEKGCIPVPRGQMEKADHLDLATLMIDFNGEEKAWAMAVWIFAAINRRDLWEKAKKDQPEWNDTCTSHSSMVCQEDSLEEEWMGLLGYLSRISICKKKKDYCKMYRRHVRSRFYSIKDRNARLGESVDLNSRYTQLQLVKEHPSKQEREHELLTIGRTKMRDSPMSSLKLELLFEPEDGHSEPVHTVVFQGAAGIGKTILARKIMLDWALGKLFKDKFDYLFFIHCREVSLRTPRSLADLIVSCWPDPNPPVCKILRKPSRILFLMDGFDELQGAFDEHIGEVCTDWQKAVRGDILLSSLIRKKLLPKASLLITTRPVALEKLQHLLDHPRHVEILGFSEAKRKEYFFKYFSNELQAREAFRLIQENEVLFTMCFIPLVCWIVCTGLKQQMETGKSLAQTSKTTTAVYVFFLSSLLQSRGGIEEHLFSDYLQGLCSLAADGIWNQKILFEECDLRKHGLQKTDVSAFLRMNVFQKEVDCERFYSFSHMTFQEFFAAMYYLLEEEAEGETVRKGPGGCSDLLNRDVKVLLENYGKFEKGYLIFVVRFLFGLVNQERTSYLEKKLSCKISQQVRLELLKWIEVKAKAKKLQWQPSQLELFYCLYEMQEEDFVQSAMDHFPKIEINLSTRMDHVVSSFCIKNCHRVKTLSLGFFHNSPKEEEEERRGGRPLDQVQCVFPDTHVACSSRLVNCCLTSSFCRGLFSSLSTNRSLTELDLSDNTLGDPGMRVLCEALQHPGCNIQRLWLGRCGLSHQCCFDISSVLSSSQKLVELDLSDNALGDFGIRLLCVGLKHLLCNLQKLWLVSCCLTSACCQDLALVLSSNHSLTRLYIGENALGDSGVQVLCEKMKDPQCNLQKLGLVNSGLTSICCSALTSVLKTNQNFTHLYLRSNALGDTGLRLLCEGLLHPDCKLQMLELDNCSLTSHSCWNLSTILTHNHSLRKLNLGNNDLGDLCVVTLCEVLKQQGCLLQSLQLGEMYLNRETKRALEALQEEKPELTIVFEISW

Columns and labels:
[1] = target: T1, myc-tagged murine Pellino2 (mouse) (UniProt Q8BST6); assay: co-IP; IP anti-myc, blot NLRP3; immortalized WT and Irak1-/- BMDMs infected with MSCV-Peli2, 100 ng/ml LPS for the indicated times
T1 sequence: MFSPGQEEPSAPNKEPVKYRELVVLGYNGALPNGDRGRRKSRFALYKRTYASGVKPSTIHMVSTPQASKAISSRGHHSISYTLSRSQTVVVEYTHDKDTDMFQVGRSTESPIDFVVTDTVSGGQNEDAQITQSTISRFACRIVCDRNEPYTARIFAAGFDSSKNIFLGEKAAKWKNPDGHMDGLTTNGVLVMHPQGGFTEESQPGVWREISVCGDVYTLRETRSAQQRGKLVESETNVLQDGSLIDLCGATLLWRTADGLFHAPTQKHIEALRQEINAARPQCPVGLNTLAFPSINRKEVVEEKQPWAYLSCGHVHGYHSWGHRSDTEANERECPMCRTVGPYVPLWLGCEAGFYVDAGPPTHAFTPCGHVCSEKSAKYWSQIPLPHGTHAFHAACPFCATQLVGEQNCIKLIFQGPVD

[2] = target: IRAK1 (mouse (endogenous in BMDMs)) (UniProt Q62406); assay: co-IP; IP anti-IRAK1, blot NLRP3; WT and Peli2-/- BMDMs, 100 ng/ml LPS for the indicated times; 0.5x NP-40 lysis buffer, protein A-protein G-agarose overnight at 4 °C
[3] = target: T1, myc-tagged murine Pellino2 (mouse); assay: co-IP; IP anti-myc, blot NLRP3; Peli2-/- BMDMs infected with MSCV-Peli2, 100 ng/ml LPS for the indicated times; 0.5x NP-40 lysis buffer, protein A-protein G-agarose overnight at 4 °C

binding [2]: binds
binding [3]: binds
Substance: NLRP3 (from UniProt Q8R4B8 1-1033)
binding [1]: binds
